log2 fold change data for 36 targets are collected here from the supplement of paper PMC12819154, “High-throughput peptide-centric local stability assay extends protein–ligand identification to membrane proteins, tissues and bacteria” (Nature Structural & Molecular Biology, 2025).

Protein sequences, listed by entry. Tags and fused reporters are not part of them. Lines headed by an entry give the natural chain unless they say otherwise; changes in a name come on top.
UniProt Q9D6J6, whole entry: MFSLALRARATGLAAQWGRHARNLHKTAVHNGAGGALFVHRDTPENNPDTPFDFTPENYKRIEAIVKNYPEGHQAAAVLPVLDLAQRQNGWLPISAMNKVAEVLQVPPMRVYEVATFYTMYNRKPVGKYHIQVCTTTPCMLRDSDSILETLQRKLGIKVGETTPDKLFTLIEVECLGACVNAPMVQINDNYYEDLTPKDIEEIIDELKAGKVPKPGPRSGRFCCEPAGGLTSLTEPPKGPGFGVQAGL
UniProt Q9D7S9: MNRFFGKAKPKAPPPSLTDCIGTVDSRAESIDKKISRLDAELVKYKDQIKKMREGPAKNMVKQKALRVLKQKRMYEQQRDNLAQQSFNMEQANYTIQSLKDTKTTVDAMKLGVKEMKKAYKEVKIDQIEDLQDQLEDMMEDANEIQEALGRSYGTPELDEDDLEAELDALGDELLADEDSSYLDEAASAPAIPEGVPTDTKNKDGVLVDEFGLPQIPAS
UniProt Q9D7V1: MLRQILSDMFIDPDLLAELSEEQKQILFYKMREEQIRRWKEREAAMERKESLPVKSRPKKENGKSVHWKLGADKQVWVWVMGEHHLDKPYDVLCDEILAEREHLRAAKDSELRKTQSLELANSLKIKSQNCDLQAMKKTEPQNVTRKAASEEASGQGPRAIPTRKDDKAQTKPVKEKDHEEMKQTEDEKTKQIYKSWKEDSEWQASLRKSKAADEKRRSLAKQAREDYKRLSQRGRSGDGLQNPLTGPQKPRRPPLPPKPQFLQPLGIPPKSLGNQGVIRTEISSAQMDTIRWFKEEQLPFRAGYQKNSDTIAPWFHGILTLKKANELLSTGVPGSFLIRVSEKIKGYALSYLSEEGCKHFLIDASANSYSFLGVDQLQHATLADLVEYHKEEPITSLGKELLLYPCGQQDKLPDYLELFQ
UniProt Q9D1I6: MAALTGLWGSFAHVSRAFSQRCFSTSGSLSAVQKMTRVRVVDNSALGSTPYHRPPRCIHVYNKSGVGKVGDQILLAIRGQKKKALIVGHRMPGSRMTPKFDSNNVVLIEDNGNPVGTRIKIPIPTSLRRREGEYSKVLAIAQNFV
UniProt Q9D1A2: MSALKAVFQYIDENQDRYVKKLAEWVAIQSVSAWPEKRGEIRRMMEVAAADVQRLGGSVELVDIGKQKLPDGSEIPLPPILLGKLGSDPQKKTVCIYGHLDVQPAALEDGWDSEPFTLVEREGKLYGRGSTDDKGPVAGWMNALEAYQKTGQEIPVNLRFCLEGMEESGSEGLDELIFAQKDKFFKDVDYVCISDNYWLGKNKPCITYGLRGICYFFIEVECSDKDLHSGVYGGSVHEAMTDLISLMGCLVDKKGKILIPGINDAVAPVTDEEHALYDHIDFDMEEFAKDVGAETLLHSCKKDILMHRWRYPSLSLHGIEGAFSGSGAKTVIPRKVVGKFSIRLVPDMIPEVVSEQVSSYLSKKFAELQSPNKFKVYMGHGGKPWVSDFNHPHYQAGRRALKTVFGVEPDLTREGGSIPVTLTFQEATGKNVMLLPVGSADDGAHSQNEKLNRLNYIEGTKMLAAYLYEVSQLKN
UniProt Q9D273: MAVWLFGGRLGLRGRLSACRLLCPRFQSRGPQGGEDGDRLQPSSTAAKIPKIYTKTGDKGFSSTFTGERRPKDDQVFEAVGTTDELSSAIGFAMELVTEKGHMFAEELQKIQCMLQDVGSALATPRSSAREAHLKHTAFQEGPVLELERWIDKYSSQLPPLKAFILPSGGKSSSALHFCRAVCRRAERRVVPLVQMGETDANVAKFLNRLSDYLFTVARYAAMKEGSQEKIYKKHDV
UniProt Q9D742: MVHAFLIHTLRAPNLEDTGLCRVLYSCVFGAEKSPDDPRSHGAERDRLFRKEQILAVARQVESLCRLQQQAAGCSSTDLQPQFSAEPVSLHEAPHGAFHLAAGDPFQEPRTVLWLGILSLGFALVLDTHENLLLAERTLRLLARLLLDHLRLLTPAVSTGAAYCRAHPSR
UniProt Q9D2X5: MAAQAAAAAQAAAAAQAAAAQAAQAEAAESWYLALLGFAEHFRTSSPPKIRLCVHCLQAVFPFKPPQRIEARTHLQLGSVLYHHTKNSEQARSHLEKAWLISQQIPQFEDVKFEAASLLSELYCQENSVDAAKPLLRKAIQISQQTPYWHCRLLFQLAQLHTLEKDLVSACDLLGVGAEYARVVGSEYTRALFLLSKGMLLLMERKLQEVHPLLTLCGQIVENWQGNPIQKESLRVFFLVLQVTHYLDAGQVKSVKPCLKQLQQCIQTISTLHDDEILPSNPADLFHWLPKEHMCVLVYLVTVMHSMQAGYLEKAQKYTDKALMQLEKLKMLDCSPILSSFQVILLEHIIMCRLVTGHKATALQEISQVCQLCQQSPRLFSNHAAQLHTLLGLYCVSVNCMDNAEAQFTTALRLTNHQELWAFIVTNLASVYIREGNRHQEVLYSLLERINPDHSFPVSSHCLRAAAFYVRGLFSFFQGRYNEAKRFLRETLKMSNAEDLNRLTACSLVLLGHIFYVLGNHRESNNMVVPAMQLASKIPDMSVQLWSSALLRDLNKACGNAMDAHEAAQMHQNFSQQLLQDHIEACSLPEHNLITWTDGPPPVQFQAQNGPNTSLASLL
UniProt Q9D8Z1: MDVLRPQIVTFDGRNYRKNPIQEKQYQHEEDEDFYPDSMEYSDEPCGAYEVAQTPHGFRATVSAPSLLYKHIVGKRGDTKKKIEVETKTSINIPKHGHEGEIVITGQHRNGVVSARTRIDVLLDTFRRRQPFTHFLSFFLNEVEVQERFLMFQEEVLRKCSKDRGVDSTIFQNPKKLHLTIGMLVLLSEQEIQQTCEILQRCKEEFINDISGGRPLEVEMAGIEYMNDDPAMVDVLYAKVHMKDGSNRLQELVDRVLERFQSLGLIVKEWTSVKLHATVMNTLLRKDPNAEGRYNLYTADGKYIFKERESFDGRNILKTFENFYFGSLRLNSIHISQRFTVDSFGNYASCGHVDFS
UniProt Q9D8B6: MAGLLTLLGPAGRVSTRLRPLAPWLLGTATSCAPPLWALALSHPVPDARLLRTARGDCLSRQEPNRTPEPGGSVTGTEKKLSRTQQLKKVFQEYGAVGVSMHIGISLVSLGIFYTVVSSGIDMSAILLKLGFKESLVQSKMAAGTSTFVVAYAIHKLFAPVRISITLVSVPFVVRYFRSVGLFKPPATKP
UniProt Q9D8P7: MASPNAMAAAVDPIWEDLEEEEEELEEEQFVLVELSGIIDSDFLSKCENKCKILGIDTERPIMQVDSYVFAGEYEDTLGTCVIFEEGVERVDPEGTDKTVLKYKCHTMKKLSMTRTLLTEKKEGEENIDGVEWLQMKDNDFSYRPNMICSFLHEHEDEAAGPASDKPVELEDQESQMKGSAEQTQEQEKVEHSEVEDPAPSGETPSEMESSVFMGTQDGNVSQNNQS
UniProt Q9D4D4: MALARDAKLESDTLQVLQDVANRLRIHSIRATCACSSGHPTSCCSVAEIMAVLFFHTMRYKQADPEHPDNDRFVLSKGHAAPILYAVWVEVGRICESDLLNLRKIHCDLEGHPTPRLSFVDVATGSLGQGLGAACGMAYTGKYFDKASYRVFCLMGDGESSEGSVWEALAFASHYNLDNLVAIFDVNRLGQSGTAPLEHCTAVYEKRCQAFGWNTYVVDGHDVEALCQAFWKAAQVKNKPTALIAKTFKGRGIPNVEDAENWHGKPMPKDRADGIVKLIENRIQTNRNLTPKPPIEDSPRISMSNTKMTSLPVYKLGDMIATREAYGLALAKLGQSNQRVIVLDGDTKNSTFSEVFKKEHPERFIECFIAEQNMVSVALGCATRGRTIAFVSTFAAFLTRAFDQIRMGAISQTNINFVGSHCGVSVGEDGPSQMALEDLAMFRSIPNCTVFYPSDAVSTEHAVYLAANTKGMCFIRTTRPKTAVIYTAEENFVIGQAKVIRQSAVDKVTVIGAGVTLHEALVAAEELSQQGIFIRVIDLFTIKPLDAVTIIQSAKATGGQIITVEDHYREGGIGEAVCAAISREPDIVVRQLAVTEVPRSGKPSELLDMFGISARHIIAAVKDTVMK
UniProt Q9D4H2: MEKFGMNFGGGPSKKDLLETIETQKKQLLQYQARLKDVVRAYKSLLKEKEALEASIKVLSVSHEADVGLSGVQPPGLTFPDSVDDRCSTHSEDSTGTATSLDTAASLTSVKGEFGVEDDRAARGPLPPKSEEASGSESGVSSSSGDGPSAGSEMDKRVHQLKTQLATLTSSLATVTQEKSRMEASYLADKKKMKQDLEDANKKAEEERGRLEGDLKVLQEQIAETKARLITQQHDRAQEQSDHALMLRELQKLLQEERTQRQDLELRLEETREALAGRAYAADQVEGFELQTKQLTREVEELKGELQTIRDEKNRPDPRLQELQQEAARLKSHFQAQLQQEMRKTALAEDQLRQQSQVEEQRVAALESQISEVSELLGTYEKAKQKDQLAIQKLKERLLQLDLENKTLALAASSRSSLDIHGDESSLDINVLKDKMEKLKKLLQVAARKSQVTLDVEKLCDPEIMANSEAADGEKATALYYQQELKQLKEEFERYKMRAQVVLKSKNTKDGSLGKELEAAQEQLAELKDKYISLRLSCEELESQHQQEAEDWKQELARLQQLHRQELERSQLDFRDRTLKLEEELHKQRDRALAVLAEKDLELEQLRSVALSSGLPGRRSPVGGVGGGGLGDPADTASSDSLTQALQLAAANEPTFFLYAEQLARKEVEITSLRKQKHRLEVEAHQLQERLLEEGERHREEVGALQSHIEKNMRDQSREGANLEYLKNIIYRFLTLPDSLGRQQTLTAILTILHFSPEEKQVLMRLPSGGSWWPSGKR
UniProt Q9D7A6: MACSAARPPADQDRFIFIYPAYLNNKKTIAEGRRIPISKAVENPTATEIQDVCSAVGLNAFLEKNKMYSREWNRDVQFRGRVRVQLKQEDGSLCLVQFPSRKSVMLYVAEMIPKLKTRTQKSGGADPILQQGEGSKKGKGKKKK
UniProt Q9D7B1: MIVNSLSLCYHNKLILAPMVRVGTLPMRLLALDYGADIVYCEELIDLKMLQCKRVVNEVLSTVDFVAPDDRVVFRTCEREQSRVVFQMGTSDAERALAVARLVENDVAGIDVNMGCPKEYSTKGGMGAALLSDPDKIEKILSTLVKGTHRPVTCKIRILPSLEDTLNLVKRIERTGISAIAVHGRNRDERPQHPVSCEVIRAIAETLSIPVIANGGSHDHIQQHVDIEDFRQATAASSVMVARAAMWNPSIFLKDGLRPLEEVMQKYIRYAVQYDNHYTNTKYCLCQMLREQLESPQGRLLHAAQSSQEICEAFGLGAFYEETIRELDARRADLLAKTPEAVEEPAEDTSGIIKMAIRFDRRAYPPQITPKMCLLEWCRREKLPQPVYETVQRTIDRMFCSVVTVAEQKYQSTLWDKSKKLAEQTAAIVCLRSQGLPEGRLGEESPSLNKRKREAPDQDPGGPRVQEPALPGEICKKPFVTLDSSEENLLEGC
UniProt Q9D1M7: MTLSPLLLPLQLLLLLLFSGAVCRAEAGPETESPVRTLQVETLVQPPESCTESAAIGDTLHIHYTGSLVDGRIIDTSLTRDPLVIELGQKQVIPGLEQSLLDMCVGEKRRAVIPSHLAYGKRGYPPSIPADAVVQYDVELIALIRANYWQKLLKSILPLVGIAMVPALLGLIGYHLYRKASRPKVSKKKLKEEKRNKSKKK
UniProt Q9D5K4: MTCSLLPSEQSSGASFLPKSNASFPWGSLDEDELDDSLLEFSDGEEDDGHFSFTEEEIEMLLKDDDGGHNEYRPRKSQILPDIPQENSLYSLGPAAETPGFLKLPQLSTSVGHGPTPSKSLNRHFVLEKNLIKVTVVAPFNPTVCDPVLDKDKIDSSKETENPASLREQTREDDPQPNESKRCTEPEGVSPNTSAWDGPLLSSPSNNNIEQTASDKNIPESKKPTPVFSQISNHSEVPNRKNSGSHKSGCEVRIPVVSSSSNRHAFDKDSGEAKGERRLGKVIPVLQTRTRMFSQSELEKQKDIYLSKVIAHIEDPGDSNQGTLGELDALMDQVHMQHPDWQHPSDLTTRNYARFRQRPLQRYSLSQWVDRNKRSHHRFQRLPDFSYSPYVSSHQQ
UniProt Q9DAK9: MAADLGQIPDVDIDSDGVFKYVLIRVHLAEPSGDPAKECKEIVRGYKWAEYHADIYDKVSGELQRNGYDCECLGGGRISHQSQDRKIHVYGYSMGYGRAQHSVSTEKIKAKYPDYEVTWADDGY
UniProt Q9D1P2: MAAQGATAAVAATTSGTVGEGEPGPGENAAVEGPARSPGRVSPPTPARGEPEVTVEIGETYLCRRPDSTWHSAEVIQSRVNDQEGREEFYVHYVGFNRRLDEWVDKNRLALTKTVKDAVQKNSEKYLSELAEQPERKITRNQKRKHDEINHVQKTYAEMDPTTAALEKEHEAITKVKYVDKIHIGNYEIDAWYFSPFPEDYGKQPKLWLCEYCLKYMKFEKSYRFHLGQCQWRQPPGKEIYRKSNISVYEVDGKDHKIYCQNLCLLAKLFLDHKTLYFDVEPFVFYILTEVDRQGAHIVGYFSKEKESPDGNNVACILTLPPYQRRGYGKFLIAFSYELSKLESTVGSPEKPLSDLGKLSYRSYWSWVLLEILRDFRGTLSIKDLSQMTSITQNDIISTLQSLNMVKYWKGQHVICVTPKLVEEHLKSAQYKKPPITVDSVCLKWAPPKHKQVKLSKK

The list shows a part of the results. Small differences around the control level are noise.

Compound in the test: CN[C@@H]1C[C@H]2O[C@@](C)([C@@H]1OC)n1c3ccccc3c3c4c(c5c6ccccc6n2c5c31)C(=O)NC4 [staurosporine]
Briefly: log2 fold change of tryptic peptide abundance, ligand vs vehicle (limited proteolysis) (log2 ratio); higher = more trypsin-susceptible (destabilized). The note with it: ligand concentration: 20 uM; sample: mouse liver crude lysate; replicate design: treated separately.
Consider “UniProt Q9D6J6 (peptide sequence: YHIQVCTTTPCMLR, peptide start residue: 129)”, for which the log2 fold change was -0.105.

For the target “UniProt Q9D1Z3 (peptide sequence: GGRPNQEWVGQK, peptide start residue: 213)”, the log2 fold change was -0.114.

In the case of “UniProt Q9D7S9 (peptide sequence: YKDQIKK, peptide start residue: 45)”, the log2 fold change is 0.11.

Take “UniProt Q9D7V1 (peptide sequence: KTQSLELANSLK, peptide start residue: 114)”: the log2 fold change stood at 0.637.

Regarding “UniProt Q9D5V5 (peptide sequence: LATELPDAELRR, peptide start residue: 621)”, the log2 fold change is -0.638.

In the case of “UniProt Q9D1Q6 (peptide sequence: GTINFLHADCDKFR, peptide start residue: 292)”, the log2 fold change is -0.987.

On to “UniProt Q9D1C9 (peptide sequence: ELLNFYAWQHR, peptide start residue: 237)”, for which the log2 fold change is -0.269.

With “UniProt Q9D1I6 (peptide sequence: VVDNSALGSTPYHRPPR, peptide start residue: 40)”, the log2 fold change amounted to 0.0687.

Take “UniProt Q9D727 (peptide sequence: HITATHGEPTASLLPR, peptide start residue: 52)”: the log2 fold change amounted to 0.113.

Consider “UniProt Q9D1G1 (peptide sequence: RMGPGAASGGERPNLK, peptide start residue: 172)”, for which the log2 fold change came to 0.859.

Regarding “UniProt Q9D2D7 (peptide sequence: LSPVTPTPEGPK, peptide start residue: 373)”, the log2 fold change amounted to 0.277.

As to “UniProt Q9D1L9 (peptide sequence: HDGITVAVHK, peptide start residue: 79)”, the log2 fold change is -0.298.

Take “UniProt Q9D1A2 (peptide sequence: FAELQSPNKFK, peptide start residue: 365)”: the log2 fold change is -0.251.

In the case of “UniProt Q9D273 (peptide sequence: WIDKYSSQLPPLK, peptide start residue: 150)”, the log2 fold change was 0.18.

For “UniProt Q9D1X0 (peptide sequence: MPDPAWDWQHVGPGYR, peptide start residue: 86)”, the log2 fold change is 0.185.

As to “UniProt Q9D742 (peptide sequence: VHAFLIHTLR, peptide start residue: 2)”, the log2 fold change came to 0.511.

With “UniProt Q9D864 (peptide sequence: EEMVLSGK, peptide start residue: 253)”, the log2 fold change was 0.12.

“UniProt Q9D2X5 (peptide sequence: THLQLGSVLYHHTK, peptide start residue: 73)”: the log2 fold change is -0.256.

Take “UniProt Q9D2E2 (peptide sequence: YAAEFHAR, peptide start residue: 231)”: the log2 fold change was found to be 0.342.

With “UniProt Q9D842 (peptide sequence: GPLLGITDKR, peptide start residue: 28)”, the log2 fold change is 0.271.

On to “UniProt Q9D4V0 (peptide sequence: IYGNKTELLVDRDEEVK, peptide start residue: 79)”, for which the log2 fold change is -0.0644.

“UniProt Q9D8Z1 (peptide sequence: TRIDVLLDTFR, peptide start residue: 117)”: the log2 fold change is -0.161.

Turning to “UniProt Q9D2G5 (peptide sequence: TGISKPYNVK, peptide start residue: 1110)”, the log2 fold change is 0.305.

Regarding “UniProt Q9D8B6 (peptide sequence: TPEPGGSVTGTEK, peptide start residue: 67)”, the log2 fold change amounted to 0.209.

Consider “UniProt Q9D8Y0 (peptide sequence: FEEEIKAEQEER, peptide start residue: 207)”, for which the log2 fold change was -0.0795.

As for “UniProt Q9D8P7 (peptide sequence: VDPEGTDKTVLK, peptide start residue: 91)”, the log2 fold change is -0.0144.

As to “UniProt Q9D4D4 (peptide sequence: PTALIAKTFKGR, peptide start residue: 240)”, the log2 fold change amounted to 0.06.

As to “UniProt Q9D4H2 (peptide sequence: SSLDIHGDESSLDINVLK, peptide start residue: 416)”, the log2 fold change was found to be 0.255.

As to “UniProt Q9D7A6 (peptide sequence: QEDGSLCLVQFPSRK, peptide start residue: 88)”, the log2 fold change was 0.0299.

As for “UniProt Q9D1R2 (peptide sequence: GFRYELYCLAR, peptide start residue: 86)”, the log2 fold change is -0.204.

Regarding “UniProt Q9D7B1 (peptide sequence: TGISAIAVHGR, peptide start residue: 175)”, the log2 fold change is 0.801.

“UniProt Q9D1M7 (peptide sequence: AVIPSHLAYGKR, peptide start residue: 111)”: the log2 fold change was -0.00165.

With “UniProt Q9D5K4 (peptide sequence: EQTREDDPQPNESKR, peptide start residue: 168)”, the log2 fold change was -0.204.

As for “UniProt Q9DAK9 (peptide sequence: WAEYHADIYDK, peptide start residue: 48)”, the log2 fold change was -0.371.

As for “UniProt Q9D1P2 (peptide sequence: KPPITVDSVCLK, peptide start residue: 433)”, the log2 fold change worked out at 0.193.

In the case of “UniProt Q9D6Z1 (peptide sequence: RKFSEEPEVAANFTK, peptide start residue: 551)”, the log2 fold change is -0.38.
